Data from US10562842B2, “Use of polyaminoisoprenyl derivatives in antibiotic or antiseptic treatment” (UNIVERSITE D'AIX-MARSEILLE, priority 2011, dated 2020).
Some of these results come from one statement about several compounds together.

Legend:
[1] = test system: Enterobacter aerogenes MDR Ea289; test: MIC of antibiotics ± test compound (MIC ratio), micro-broth dilution; type: cell-based; conditions: for MIC ratios of Ea289 for chloramphenicol, doxycycline, nalidixic acid and erythromycin: all four antibiotics; for MIC ratios of Ea289 for chloramphenicol, doxycycline, nalidixic acid and erythromycin / MIC ratio in Ea289 strain for erythromycin: Set 2; for MIC ratio for at least two antibiotics on the two MDR strains (Ea289) / MIC ratio on Ea289 for the three antibiotics tested: Chl, Ery, Nal, compound at MIC/4, Set 1
Method: The process consists of treating the MDR bacteria with the compounds of the invention in the presence of antibiotics.
(§1) Susceptibilities to antibiotics and compounds were determined in microplates by broth dilution method, as previously described. Minimal Inhibitory Concentrations (MICs) were determined with an inoculum of 10^6 CFU in 200 μL of MH broth containing two-fold serial dilutions of each drug. […] All MIC determinations were repeated at least three times in independent experiments.
The MICs of chloramphenicol±test compounds (MIC/4) were determined by the micro-broth dilution method (9). All MIC determinations were repeated at least three times in independent experiments. The MIC ratio corresponds to the ratio of the MIC of an antibiotic alone to the MIC of the same antibiotic in the presence of the tested compound (at MIC/4).
The compounds listed in Table 2 were tested for their ability to decrease the chloramphenicol MIC of Ea289, an Enterobacter aerogenes MDR strain (1). Each compound was first tested at MIC/4. […] All MIC determinations were repeated at least three times in independent experiments.
(§2) For reminder, the MIC ratio corresponds to the ratio of the MIC of the assessed antibiotic alone to the MIC of the same antibiotic in the presence of the tested compound (at MIC/4).

[2] = test system: Salmonella Thyphimurium MDR BN10055; test: as above; type: cell-based, Salmonella enterica serovar Typhimurium; conditions: for MICs for erythromycin, BN100555 strains: Set 2
Method: The Enterobacter aerogenes Ea289 strain is a Kans derivative of the MDR clinical isolate Ea27, the acrB mutant, EaEP294, was constructed from Ea289. Multidrug-resistant Salmonella enterica serovar Typhimurium DT104 strains (BN10055) was isolated from cattle in France, the isogenic acrB derivative mutant, BN10055ΔacrB, was constructed from BN10055. Strains were maintained at −80° C. in 25% (v/v) glycerol for cryoprotection. Bacteria were routinely grown in Mueller-Hinton (MH) broth at 37° C.
as §1
[…] All MIC determinations were repeated at least three times in independent experiments. The MIC ratio corresponds to the ratio of the MIC of an antibiotic alone to the MIC of the same antibiotic in the presence of the tested compound (at MIC/4).
as §2

[3] = Chl, Ery, Nal, compound at MIC/4, Set 1

CC(C)=CCC/C(C)=C/CC/C(C)=C/CNCCCCN [Compound 17]
MIC ratios of Ea289 for chloramphenicol, doxycycline, nalidixic acid and erythromycin [1]: ≥ 8
MIC ratio in Ea289 strain for erythromycin [1]: ≥ 128

CC(C)=CCC/C(C)=C/CC/C(C)=C/CNCCNCCNCCNCCN [Compound 36, (2-{2-[2-(2-Amino-ethylamino)-ethylamino]-ethylamino}-ethyl)-(3,7,11-trimethyl-dodeca-2,6,10-trienyl)-amine]
MIC ratios of Ea289 for chloramphenicol, doxycycline, nalidixic acid and erythromycin [1]: ≥ 8

CC(C)=CCC/C(C)=C/CC/C(C)=C/CNCCCN(CCCN)CCCN [Compound 9, {3-[Bis-(3-amino-propyl)-amino]-propyl}-(3,7,11-trimethyl-dodeca-2,6,10-trienyl)-amine]
MIC ratio for at least two antibiotics on the two MDR strains (Ea289) [1]: ≥ 16
MIC ratio on Ea289 for the three antibiotics tested [1]: ≥ 16
MIC ratio for at least two antibiotics on the two MDR strains (BN10055) [2, 3]: ≥ 16
MIC ratio for the three antibiotics tested on the strain BN10005 [2, 3]: ≥ 16

CCN(CC)CCNCCCNC/C=C(\C)CCC=C(C)C [Compound 21]
MIC ratios of Ea289 for chloramphenicol, doxycycline, nalidixic acid and erythromycin [1]: ≥ 8

CC(C)=CCC/C(C)=C/CNCCCN [Compound 12, (3,7-Dimethyl-octa-2,6-dienyl)-propane-1,3-diamine]
MIC ratios of Ea289 for chloramphenicol, doxycycline, nalidixic acid and erythromycin [1]: ≥ 8

CC(C)=CCC/C(C)=C/CC/C(C)=C/CNCCCNCCCCN [Compound 19]
MIC ratios of Ea289 for chloramphenicol, doxycycline, nalidixic acid and erythromycin [1]: ≥ 8

CC(C)=CCC/C(C)=C/CC/C(C)=C/CNCCCN(C)CCCN [Compound 14, {3-[(3-Amino-propyl)-methyl-amino]-propyl}-((2E,6E)-3,7,11-trimethyl-dodeca-2,6,10-trienyl)-amine]
MIC ratios of Ea289 for chloramphenicol, doxycycline, nalidixic acid and erythromycin [1]: ≥ 8
MIC ratio in Ea289 strain for erythromycin [1]: ≥ 128
MICs for erythromycin, BN100555 strains [2]: > 8

CC(C)=CCC/C(C)=C/CC/C(C)=C/CNCCCNCCCN [Compound 20]
MIC ratios of Ea289 for chloramphenicol, doxycycline, nalidixic acid and erythromycin [1]: ≥ 8

CC(C)=CCC/C(C)=C/CC/C(C)=C/CNCCCN1CCN(CCCN)CC1 [Compound 15, {3-[4-(3-Amino-propyl)-piperazin-1-yl]-propyl}-((2E,6E)-3,7,11-trimethyl-dodeca-2,6,10-trienyl)-amine]
MIC ratios of Ea289 for chloramphenicol, doxycycline, nalidixic acid and erythromycin [1]: ≥ 8
MIC ratio in Ea289 strain for erythromycin [1]: ≥ 128

CC(C)=CCC/C(C)=C/CC/C(C)=C/CNCCCN1CCCC1 [Compound 22]
MIC ratios of Ea289 for chloramphenicol, doxycycline, nalidixic acid and erythromycin [1]: ≥ 8
MICs for erythromycin, BN100555 strains [2]: > 8

CC(C)=CCC/C(C)=C/CC/C(C)=C/CNCCCCCN [Compound 18]
MIC ratios of Ea289 for chloramphenicol, doxycycline, nalidixic acid and erythromycin [1]: ≥ 8

CC(C)=CCC/C(C)=C/CNCCCN(C)CCCN [Compound 13, {3-[(3-Amino-propyl)-methyl-amino]-propyl}-((E)-3,7-dimethyl-octa-2,6-dienyl)-amine]
MIC ratios of Ea289 for chloramphenicol, doxycycline, nalidixic acid and erythromycin [1]: ≥ 8

CC(C)=CCCC(C)=CCNCCCN(CCCN)CCCN (racemic) [Compound 11, {3-[Bis-(3-amino-propyl)-amino]-propyl}-(3,7-dimethyl-octa-2,6-dienyl)-amine]
MIC ratio for at least two antibiotics on the two MDR strains (Ea289) [1]: ≥ 16
MIC ratios of Ea289 for chloramphenicol, doxycycline, nalidixic acid and erythromycin [1]: ≥ 8
MIC ratio for at least two antibiotics on the two MDR strains (BN10055) [2, 3]: ≥ 16

CC(C)=CCC/C(C)=C/CC/C(C)=C/CNCCCNCCCCNCCCN [Compound 8, {3-[4-(3-Amino-propylamino)-butylamino]-propyl}-(3,7,11-trimethyl-dodeca-2,6,10-trienyl)-amine]
MIC ratio for at least two antibiotics on the two MDR strains (Ea289) [1]: ≥ 16
MIC ratio on Ea289 for the three antibiotics tested [1]: ≥ 16
MIC ratios of Ea289 for chloramphenicol, doxycycline, nalidixic acid and erythromycin [1]: ≥ 8
MIC ratio for at least two antibiotics on the two MDR strains (BN10055) [2, 3]: ≥ 16

CC(C)=CCC/C(C)=C/CC/C(C)=C/CNCCCN [Compound 16]
MIC ratios of Ea289 for chloramphenicol, doxycycline, nalidixic acid and erythromycin [1]: ≥ 8
MIC ratio in Ea289 strain for erythromycin [1]: ≥ 128
MICs for erythromycin, BN100555 strains [2]: > 8

CC(C)=CCCC(C)=CCNCCCNCCCCNCCCN (racemic) [Compound 10, {3-[4-(3-Amino-propylamino)-butylamino]-propyl}-(3,7-dimethyl-octa-2,6-dienyl)-amine]
MIC ratio for at least two antibiotics on the two MDR strains (Ea289) [1]: ≥ 16
MIC ratio for at least two antibiotics on the two MDR strains (BN10055) [2, 3]: ≥ 16

CC(C)=CCC/C(C)=C/CC/C(C)=C/CNCCCN1CCOCC1 [Compound 23]
MIC ratios of Ea289 for chloramphenicol, doxycycline, nalidixic acid and erythromycin [1]: ≥ 8
